The supplement of paper PMC12067093, “Discovery and optimisation of a covalent ligand for TRIM25 and its application to targeted protein ubiquitination” (Chemical Science, 2025)
The list shows a part of the results.

Sequences of proteins named here, by UniProt entry; tags and fusion partners are left off. A change or cut given only in a name is not applied to a line headed by its entry.
UniProt Q86W92: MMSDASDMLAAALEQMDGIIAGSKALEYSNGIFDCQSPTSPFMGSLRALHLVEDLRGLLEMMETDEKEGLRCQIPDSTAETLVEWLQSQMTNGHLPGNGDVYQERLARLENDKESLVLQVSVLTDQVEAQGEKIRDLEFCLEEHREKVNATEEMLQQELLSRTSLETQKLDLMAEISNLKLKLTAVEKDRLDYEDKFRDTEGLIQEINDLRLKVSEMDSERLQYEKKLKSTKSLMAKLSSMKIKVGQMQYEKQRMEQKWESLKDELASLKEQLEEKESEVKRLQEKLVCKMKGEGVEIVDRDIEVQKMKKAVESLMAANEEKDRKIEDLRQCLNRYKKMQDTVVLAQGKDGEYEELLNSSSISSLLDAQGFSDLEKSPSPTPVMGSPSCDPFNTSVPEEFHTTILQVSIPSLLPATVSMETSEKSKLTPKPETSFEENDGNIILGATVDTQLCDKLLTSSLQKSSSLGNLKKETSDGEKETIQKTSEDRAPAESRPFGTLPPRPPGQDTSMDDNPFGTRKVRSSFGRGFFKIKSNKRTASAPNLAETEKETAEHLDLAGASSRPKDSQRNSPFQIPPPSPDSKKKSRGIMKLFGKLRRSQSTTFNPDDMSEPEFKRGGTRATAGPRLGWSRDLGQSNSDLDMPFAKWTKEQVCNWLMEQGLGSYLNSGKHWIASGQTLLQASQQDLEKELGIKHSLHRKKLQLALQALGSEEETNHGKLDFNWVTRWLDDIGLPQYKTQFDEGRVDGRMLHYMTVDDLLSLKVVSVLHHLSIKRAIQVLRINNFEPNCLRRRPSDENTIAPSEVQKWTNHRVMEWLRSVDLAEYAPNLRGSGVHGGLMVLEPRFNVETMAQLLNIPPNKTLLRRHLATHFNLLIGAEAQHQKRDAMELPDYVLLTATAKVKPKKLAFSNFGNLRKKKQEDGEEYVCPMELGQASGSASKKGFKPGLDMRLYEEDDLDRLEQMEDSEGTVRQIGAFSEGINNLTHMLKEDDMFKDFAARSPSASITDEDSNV
UniProt Q9NUX5: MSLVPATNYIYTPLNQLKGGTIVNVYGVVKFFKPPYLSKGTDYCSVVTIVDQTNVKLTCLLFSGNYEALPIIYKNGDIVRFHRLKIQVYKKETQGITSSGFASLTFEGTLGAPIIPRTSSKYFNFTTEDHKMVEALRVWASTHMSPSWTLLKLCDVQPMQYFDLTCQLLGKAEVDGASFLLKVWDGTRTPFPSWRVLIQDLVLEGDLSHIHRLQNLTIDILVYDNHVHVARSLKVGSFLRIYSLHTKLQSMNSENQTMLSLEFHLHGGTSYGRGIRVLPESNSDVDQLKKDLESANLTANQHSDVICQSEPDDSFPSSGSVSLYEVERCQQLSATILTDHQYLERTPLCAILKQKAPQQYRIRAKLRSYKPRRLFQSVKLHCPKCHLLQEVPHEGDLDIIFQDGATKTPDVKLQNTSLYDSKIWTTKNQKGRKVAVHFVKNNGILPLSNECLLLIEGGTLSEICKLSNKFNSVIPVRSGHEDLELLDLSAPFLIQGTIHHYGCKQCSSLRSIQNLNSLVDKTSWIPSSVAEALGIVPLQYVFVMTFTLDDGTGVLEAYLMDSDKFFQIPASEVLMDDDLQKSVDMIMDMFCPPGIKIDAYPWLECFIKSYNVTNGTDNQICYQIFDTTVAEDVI
UniProt O95602, whole entry, looked up: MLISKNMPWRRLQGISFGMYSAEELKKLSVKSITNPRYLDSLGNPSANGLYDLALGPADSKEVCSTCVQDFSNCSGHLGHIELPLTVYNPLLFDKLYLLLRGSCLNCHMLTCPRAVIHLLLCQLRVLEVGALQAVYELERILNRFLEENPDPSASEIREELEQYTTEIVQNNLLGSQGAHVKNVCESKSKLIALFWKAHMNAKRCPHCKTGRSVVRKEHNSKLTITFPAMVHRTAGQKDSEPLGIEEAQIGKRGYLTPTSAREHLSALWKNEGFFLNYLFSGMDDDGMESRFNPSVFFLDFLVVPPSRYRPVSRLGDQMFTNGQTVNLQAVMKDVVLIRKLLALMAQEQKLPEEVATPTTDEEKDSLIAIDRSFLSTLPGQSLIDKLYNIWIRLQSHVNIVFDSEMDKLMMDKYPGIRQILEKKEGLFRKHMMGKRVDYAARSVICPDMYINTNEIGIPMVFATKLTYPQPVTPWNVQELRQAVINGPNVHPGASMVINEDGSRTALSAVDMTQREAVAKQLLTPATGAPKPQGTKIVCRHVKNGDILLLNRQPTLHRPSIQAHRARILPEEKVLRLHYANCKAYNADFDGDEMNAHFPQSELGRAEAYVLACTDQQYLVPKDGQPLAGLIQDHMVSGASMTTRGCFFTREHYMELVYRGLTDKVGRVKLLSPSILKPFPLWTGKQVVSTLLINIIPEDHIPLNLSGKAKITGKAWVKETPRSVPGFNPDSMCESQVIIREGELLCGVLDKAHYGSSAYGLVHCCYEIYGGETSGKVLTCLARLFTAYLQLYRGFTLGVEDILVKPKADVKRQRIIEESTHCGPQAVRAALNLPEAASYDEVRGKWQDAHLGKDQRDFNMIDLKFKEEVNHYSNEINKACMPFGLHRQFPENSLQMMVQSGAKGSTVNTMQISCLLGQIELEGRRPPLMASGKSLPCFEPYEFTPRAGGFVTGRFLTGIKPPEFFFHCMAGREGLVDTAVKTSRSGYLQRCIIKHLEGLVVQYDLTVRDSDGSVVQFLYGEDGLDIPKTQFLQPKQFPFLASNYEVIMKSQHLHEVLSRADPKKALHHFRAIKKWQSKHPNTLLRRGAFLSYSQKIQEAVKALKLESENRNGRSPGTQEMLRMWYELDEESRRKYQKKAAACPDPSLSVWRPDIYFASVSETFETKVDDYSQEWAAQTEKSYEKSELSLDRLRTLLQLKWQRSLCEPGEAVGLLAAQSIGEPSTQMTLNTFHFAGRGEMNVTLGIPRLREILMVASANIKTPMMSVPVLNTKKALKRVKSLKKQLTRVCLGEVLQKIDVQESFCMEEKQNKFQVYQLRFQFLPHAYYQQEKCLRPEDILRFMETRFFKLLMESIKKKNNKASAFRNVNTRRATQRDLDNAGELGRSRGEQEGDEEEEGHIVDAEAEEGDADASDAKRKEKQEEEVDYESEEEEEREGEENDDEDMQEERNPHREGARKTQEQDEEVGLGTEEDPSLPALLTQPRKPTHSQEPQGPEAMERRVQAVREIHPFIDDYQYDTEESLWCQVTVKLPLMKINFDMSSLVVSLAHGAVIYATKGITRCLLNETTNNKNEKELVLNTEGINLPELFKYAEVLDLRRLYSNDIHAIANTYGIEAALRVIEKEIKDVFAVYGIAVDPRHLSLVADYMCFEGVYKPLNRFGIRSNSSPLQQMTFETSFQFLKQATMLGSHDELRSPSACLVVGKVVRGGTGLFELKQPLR
UniProt Q9NW08: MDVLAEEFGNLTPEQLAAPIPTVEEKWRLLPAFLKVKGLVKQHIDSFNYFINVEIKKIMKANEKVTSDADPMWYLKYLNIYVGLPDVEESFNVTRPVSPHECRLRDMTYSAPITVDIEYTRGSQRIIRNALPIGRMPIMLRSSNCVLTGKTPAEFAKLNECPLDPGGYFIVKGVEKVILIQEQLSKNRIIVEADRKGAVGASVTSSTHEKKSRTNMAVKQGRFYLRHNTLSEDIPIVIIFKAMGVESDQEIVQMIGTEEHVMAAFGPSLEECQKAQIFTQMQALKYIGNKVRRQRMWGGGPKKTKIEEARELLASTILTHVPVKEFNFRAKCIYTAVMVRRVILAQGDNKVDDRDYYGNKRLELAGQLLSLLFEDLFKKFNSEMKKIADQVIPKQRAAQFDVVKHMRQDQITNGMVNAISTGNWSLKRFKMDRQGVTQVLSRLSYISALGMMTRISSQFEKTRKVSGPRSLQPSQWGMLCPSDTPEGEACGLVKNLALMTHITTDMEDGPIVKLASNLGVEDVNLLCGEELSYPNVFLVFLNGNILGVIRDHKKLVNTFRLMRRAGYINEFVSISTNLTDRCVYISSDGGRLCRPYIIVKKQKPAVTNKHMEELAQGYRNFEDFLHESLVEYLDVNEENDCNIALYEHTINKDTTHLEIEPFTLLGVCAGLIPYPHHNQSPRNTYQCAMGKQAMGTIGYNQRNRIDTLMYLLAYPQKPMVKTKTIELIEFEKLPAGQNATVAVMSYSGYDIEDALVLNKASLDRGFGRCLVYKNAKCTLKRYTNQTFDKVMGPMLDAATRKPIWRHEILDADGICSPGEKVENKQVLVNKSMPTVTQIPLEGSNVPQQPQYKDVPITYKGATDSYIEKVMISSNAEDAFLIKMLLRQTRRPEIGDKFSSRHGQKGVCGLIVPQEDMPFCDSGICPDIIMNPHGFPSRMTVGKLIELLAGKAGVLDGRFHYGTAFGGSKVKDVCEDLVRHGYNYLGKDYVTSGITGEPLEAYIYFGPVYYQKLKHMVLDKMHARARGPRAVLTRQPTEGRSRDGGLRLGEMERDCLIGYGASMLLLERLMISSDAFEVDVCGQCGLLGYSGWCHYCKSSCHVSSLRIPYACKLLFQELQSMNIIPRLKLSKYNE
UniProt P16435: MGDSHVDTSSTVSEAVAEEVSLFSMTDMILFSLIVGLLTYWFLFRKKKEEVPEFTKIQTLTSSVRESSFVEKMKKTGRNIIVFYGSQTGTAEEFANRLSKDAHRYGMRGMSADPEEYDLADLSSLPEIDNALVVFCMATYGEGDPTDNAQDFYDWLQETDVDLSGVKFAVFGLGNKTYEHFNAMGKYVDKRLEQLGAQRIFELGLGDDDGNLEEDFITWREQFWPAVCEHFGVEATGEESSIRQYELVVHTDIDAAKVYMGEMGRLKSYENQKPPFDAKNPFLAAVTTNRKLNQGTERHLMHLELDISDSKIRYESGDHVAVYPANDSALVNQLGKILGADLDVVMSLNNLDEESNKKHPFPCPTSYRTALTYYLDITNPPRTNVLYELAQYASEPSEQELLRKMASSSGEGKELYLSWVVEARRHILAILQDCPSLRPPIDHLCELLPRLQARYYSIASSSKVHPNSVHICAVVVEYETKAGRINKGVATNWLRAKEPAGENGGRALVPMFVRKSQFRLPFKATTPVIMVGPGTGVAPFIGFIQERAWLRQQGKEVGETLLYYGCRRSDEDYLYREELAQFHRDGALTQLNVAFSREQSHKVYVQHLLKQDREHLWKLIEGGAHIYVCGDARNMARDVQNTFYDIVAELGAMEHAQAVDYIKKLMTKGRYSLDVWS
UniProt Q15181: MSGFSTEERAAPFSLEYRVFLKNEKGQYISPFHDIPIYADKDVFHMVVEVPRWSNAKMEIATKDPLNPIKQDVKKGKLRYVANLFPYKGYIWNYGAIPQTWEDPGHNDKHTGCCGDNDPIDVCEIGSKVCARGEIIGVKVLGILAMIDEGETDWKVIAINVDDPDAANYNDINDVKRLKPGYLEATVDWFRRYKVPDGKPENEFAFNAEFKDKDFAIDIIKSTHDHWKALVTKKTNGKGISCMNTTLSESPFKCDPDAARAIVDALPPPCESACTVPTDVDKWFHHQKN
UniProt Q9H2U2: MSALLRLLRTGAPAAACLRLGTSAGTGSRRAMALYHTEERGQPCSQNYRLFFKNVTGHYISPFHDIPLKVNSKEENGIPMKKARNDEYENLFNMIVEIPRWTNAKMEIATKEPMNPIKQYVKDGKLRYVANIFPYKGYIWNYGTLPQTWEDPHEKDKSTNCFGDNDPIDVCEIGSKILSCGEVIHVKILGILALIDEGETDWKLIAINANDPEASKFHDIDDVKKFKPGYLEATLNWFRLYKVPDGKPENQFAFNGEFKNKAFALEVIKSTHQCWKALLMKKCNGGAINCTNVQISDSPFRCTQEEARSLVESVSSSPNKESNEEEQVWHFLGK
UniProt Q8TCS8: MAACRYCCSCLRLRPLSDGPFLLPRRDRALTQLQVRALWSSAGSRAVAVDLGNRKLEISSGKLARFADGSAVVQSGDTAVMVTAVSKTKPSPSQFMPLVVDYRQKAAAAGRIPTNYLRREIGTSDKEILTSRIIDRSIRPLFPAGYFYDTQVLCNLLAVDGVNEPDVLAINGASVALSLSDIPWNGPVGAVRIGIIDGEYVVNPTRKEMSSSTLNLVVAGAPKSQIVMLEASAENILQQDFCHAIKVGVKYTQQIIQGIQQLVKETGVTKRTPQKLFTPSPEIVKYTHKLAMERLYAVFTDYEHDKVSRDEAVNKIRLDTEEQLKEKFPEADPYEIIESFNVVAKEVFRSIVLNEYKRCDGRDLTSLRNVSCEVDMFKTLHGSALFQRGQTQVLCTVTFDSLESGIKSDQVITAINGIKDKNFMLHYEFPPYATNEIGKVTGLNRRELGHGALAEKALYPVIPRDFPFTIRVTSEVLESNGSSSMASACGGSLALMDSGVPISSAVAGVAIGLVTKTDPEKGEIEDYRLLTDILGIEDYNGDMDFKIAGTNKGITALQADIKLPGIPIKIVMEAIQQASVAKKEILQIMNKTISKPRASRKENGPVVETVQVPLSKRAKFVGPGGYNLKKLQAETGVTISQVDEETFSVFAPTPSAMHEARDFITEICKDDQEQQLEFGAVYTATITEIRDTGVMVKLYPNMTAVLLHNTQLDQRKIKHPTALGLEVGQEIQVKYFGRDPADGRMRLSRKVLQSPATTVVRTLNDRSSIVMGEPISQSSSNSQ

Compound: CC1Cc2ccccc2N1C(=O)C1CCCN(C1)C(=O)CCl (mixture of isomers) [TRIM25 ligand 11 (diastereomer mixture)]
Test: probe-labelled cysteine peptide fold change vs DMSO (competition) (log2 fold change); higher = less target engagement (more negative = stronger competition)
Conditions: THP-1, incubation time: 4 h
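Also: competitive chemoproteomic profiling in live THP-1 cells with an iodoacetamide desthiobiotin (IA-DTB) probe, comparing probe-labelled peptide intensities in compound-treated cells against DMSO-treated controls.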

Target | probe-labelled cysteine peptide fold change (10 µM) | probe-labelled cysteine peptide fold change (50 µM)
PON2_Q15165_42_EVESVDLPHCHLIK (UniProt Q15165) | 0.0226 | 0.00409
POLR2M_P0CAP2_65_AAIAECEEVRR (UniProt P0CAP2) | -0.0353 | 0.148
PPFIBP1_Q86W92_926_QEDGEEYVCPMELGQASGSASK (UniProt Q86W92) | -0.183 | -0.344
POP1_Q99575_471_WWIETCK (UniProt Q99575) | -0.0505 | 0.0147
POLD1_P28340_873_LLIDRDPEGAVAHAQDVISDLLCNR (UniProt P28340) | 0.0571 | -0.0386
POP1_Q99575_242_CLLQDLSYYCCLELK (UniProt Q99575) | 0.0674 | -0.0124
POT1_Q9NUX5_503_SGHEDLELLDLSAPFLIQGTIHHYGCK (UniProt Q9NUX5) | 0.0674 | 0.231
POGK_Q9P215_369_AHDYEVAQMGNADETPICLEVPSR (UniProt Q9P215) | -0.0537 | -0.255
PPIF_P30405_203_IVITDCGQLS (UniProt P30405) | -0.0308 | 0.0592
POLR1A_O95602_880_ACMPFGLHR (UniProt O95602) | -0.0708 | -0.0333
POGZ_Q7Z3K3_987_VVLFALCCNTEQAAEHFR (UniProt Q7Z3K3) | 0.303 | 0.251
POLR3B_Q9NW08_145_SSNCVLTGK (UniProt Q9NW08) | -0.0376 | -0.0284
POLR3B_Q9NW08_593_LCRPYIIVK (UniProt Q9NW08) | 0.0353 | 0.144
POLD1_P28340_873_DPEGAVAHAQDVISDLLCNR (UniProt P28340) | -0.202 | -0.137
POLR1A_O95602_582_LHYANCK (UniProt O95602) | 0.0347 | 0.0645
PPIG_Q13427_33_VVFELFSDVCPK (UniProt Q13427) | 0.0131 | -0.047
PNP_P00491_206_ELQEGTYVMVAGPSFETVAECR (UniProt P00491) | 0.0672 | -0.037
PPIC_P45877_191_VIDGMTVVHSIELQATDGHDRPLTNCSIINSGK (UniProt P45877) | 0.251 | 0.00262
POLR2I_P36954_42+52_NCDYQQEADNSCIYVNK (UniProt P36954) | 0.0911 | -0.0405
POR_P16435_629_LIEGGAHIYVCGDAR (UniProt P16435) | 0.0803 | -0.0277
POLR2G_P62487_106_VGLFTEIGPMSCFISR (UniProt P62487) | 0.138 | 0.317

Target | probe-labelled cysteine peptide fold change (10 µM) | probe-labelled cysteine peptide fold change (50 µM)
POLRMT_O00411_591_LLAEMLVQATQMPCSLDK (UniProt O00411) | 0.305 | -0.00917
POLR1C_O15160_256_CFSPGVIEVQEVQGKK (UniProt O15160) | -0.429 | -0.154
POLK_Q9UBT6_161_RLCPQLIIVPPNFDK (UniProt Q9UBT6) | -0.118 | 0.048
PPAT_Q06203_503+506_SGHCTACLTGK (UniProt Q06203) | 0.214 | 0.0203
POLR1A_O95602_1304_IDVQESFCMEEK (UniProt O95602) | 0.122 | -0.356
POLD2_P49005_91_CCVVGTLFK (UniProt P49005) | -0.0797 | -0.113
PPFIBP1_Q86W92_140_IRDLEFCLEEHR (UniProt Q86W92) | 0.00494 | 0.188
POM121_Q96HA1_217_DCGTLPNR (UniProt Q96HA1) | -0.0522 | -0.0226
POLRMT_O00411_591_LLAEMLVQATQMPCSLDKPHR (UniProt O00411) | -0.41 | -0.445
POLR2K_P53803_19+22_QQPMIYICGECHTENEIK (UniProt P53803) | -0.124 | -0.215
POLR1B_Q9H9Y6_214_GPGYTQYGVSMHCVR (UniProt Q9H9Y6) | 0.209 | 0.12
POLR2A_P24928_602_QIFSLIIPGHINCIR (UniProt P24928) | -0.145 | 0.025
POLR1A_O95602_914_GSTVNTMQISCLLGQIELEGR (UniProt O95602) | 0.149 | 0.145
PPFIA1_Q13136_189_CSLLEEELGATHK (UniProt Q13136) | 0.0753 | 0.199
POLR2B_P30876_622_ICRPLLIVEK (UniProt P30876) | -0.0338 | -0.0492
PPA1_Q15181_114_HTGCCGDNDPIDVCEIGSK (UniProt Q15181) | 0.0448 | 0.128
POP1_Q99575_666_SPNVPGDFPDCPAGMLFAEEQAK (UniProt Q99575) | -0.0815 | -0.203
POR_P16435_363_HPFPCPTSYR (UniProt P16435) | 0.0172 | 0.0163
POC5_Q8NA72_360_GVCALNLEAMTIFQNR (UniProt Q8NA72) | -0.25 | -0.219
POLR3A_O14802_742_LQQQPGCTAEETLEALILK (UniProt O14802) | -0.0948 | -0.0341
POP1_Q99575_804_ITDQEASENHVAATGSHLCVLR (UniProt Q99575) | -0.094 | -0.219

Target | probe-labelled cysteine peptide fold change (10 µM) | probe-labelled cysteine peptide fold change (50 µM)
PPFIBP1_Q86W92_140_DLEFCLEEHREK (UniProt Q86W92) | 0.00184 | -0.0927
POP7_O75817_66_GQNACSEIYIHGLGLAINR (UniProt O75817) | -0.0588 | -0.0168
POLR2B_P30876_892_RDCSTFLR (UniProt P30876) | 0.0325 | -0.000729
POLDIP2_Q9Y2S7_143_DCPHISQR (UniProt Q9Y2S7) | 0.173 | -0.356
POMGNT1_Q8WZA1_254_TDVPLSSAEEAECHWADTELNRR (UniProt Q8WZA1) | 0.0477 | 0.0735
PPA2_Q9H2U2_180_ILSCGEVIHVK (UniProt Q9H2U2) | 0.043 | -0.0983
POLR1E_Q9GZS1_276_CIWFLDTLIK (UniProt Q9GZS1) | -0.0893 | -0.0644
POLD1_P28340_837_DNCPLVANLVTASLRR (UniProt P28340) | -0.49 | -0.14
PNPT1_Q8TCS8_359_CDGRDLTSLR (UniProt Q8TCS8) | -0.305 | -0.0386
POT1_Q9NUX5_329_CQQLSATILTDHQYLER (UniProt Q9NUX5) | 0.294 | -0.0091
POLR1A_O95602_822_IIEESTHCGPQAVR (UniProt O95602) | 0.102 | -0.141
POLQ_O75417_2411_ENDAACYIDSFK (UniProt O75417) | 0.0656 | -0.00781
POLR3C_Q9BUI4_9_LCSLLLQEHFGEIVEK (UniProt Q9BUI4) | -0.113 | -0.0577
POLRMT_O00411_178_QMAGCLEDCTR (UniProt O00411) | -0.187 | -0.336
POR_P16435_445_HILAILQDCPSLRPPIDHLCELLPR (UniProt P16435) | 0.0279 | -0.0712
POGZ_Q7Z3K3_624_HLLCPYCLK (UniProt Q7Z3K3) | -0.277 | -0.0938
PPA1_Q15181_113+114_HTGCCGDNDPIDVCEIGSK (UniProt Q15181) | 0.122 | -0.072
POLD3_Q15054_129_SNLQNCSK (UniProt Q15054) | -0.11 | -0.107
POC1A_Q8NBT0_5_AAPCAEDPSLER (UniProt Q8NBT0) | -0.0524 | 0.146
POFUT1_Q9H488_283_STAAPLTMTMCLPDLK (UniProt Q9H488) | -0.116 | 0.0833
POGLUT1_Q8NBL1_108_CSGVEHFILEVIGR (UniProt Q8NBL1) | 0.0531 | 0.0525

Single records, from the list above:
PPAT_Q06203_503+506_SGHCTACLTGK (UniProt Q06203) is listed as probe-labelled cysteine peptide fold change (10 µM): 0.214; probe-labelled cysteine peptide fold change (50 µM): 0.0203
PNPT1_Q8TCS8_359_CDGRDLTSLR (UniProt Q8TCS8) is listed as probe-labelled cysteine peptide fold change (10 µM): -0.305; probe-labelled cysteine peptide fold change (50 µM): -0.0386

(continued)

Target | probe-labelled cysteine peptide fold change (10 µM) | probe-labelled cysteine peptide fold change (50 µM)
POC1A_Q8NBT0_66_DAVTCVNFSPSGHLLASGSR (UniProt Q8NBT0) | 0.0194 | -0.361
POLR1D_P0DPB6_39_HCVTFVLHEEDHTLGNSLR (UniProt P0DPB6) | -0.0236 | 0.167
PPIA_P62937_161_KITIADCGQLE (UniProt P62937) | -0.0916 | -0.147
POLG_P54098_760_DGNSCNVGSPFAK (UniProt P54098) | -0.102 | -0.015
PPCDC_Q96CD2_166_AFGYVEIPCVAK (UniProt Q96CD2) | -0.0451 | -0.0638
POLE_Q07864_2221_LMAFTLQDLVCLK (UniProt Q07864) | 0.137 | -0.0428
POTEF_A5A3E0_917_LCYVALDFEQEMATVASSSSLEK (UniProt A5A3E0) | 0.271 | -0.0879
POFUT2_Q9Y2G5_375_DGGVAIIDQWICAHAR (UniProt Q9Y2G5) | -0.112 | -0.0206
PPA2_Q9H2U2_302_CTQEEAR (UniProt Q9H2U2) | -0.15 | 0.174
POLB_P06746_178_KVDSEYIATVCGSFR (UniProt P06746) | 0.0466 | 0.0904
POLR2A_P24928_233_ISDEECFVLGMEPR (UniProt P24928) | 0.18 | -0.072
POLRMT_O00411_925_ASDPAAYVSHLPVHQDGSCNGLQHYAALGR (UniProt O00411) | 0.0376 | -0.07
POLDIP3_Q9BY77_338_CLDGQPMK (UniProt Q9BY77) | -0.0712 | -0.127
POP1_Q99575_745_RSEVPCAPMPK (UniProt Q99575) | -0.0871 | -0.298
POLI_Q9UNA4_336_CSSEVEAK (UniProt Q9UNA4) | 0.041 | -0.0479
POLD2_P49005_438_IIRGPEDQTVLLVTVPDFSATQTACLVNLR (UniProt P49005) | -0.105 | -0.431
PPID_Q08752_275+282_LQPIALSCVLNIGACK (UniProt Q08752) | 0.246 | 0.38
PPIG_Q13427_174_ILSCGELIPK (UniProt Q13427) | -0.16 | -0.345
POGK_Q9P215_369_RAHDYEVAQMGNADETPICLEVPSR (UniProt Q9P215) | 0.0758 | -0.142
